Measured values: PubChem BioAssay AID2685 (National Center for Advancing Translational Sciences (NCATS), 2010)
The other results are listed elsewhere or left out. Shown are side measurements of this screen, not its main read-out; they come without a call. Most of these compounds were active or inconclusive in the main read-out, so they are no random draw. Potencies come from curve fits of mixed quality, noted in brackets.

Assay: qHTS Assay for Lipid Storage Modulators in Drosophila S3 Cells;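 for cell number change: cells counted by Cell Tracker Red CMTPX staining in the red channel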
Conditions: BODIPY lipid droplet fluorescence, 18-24 h; for cell number change: measured here: cell count max response, cells fed with added oleic acid
Method in brief: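 Laser-scanning cytometry quantifies lipid droplet accumulation (500–530 nm total intensity; droplet/cell object ratio) in oleic acid-fed (400 uM added) Drosophila S3 cells treated with a concentration series. 20 uM Triacsin C defined 100% inhibition.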

[1] = measured here: lipid fluorescence (Fed channel) AC50, cells fed with added oleic acid
[2] = measured here: cell number channel AC50, cells fed with added oleic acid

Row | SMILES | cell number change [%] | AC50 [1] | AC50 [2]
1 | COCCSc1nnc(NC(=O)c2ccc3c(c2)OCO3)s1 | 19.5 | 13 µM [rising, partial curve, poor fit] | 
2 | CCOc1ccc(S(=O)(=O)NCCCN2CCCC2=O)cc1 | 39 | 8.2 µM [rising, partial curve] | 6.51 µM [rising, partial curve]
3 | CCOc1ccc(S(=O)(=O)Nc2ccc(S(=O)(=O)Nc3cc(OC)ccc3OC)cc2)cc1 |  |  | 1.3 µM [rising, partial curve]
4 | COc1cc2c(cc1OC)CN(C(=O)CCNS(=O)(=O)c1ccccc1F)CC2 | 1.74 |  | 0.058 µM [rising, full curve, poor fit]
5 | CCOc1ccc(NC(=O)Nc2ccc(Br)cn2)cc1 | 6.91 | 0.13 µM [rising, full curve, poor fit] | 
6 | Cc1n[nH]c(=S)n(NC(=O)CC(=O)Nn2c(=S)[nH]nc(C)c2=O)c1=O | -13.4 | 4.11 µM [rising, partial curve, poor fit] | 6.51 µM [rising, single point]
7 | CCOc1ccc(-c2n[nH]c(=S)n2/N=C/c2cc3c(cc2[N+](=O)[O-])OCO3)cc1 | 11.2 | 1.84 µM [rising, full curve] | 
8 | COc1cccc(CNC(=O)c2cc(S(=O)(=O)N3CCCCC3)c[nH]2)c1 | 12.3 |  | 
9 | Cc1ccccc1C(=O)Nc1cc(S(=O)(=O)N2CCOCC2)ccc1N1CCN(C)CC1 | -0.519 | 29.1 µM [falling, single point] | 
10 | CCOc1ccc2[nH]cc(S(=O)(=O)c3ccc(Cl)cc3)c(=O)c2c1 | -1.9 |  | 
11 | CCCN(C(=O)c1ccc(N2CCCC2=O)cc1)C1CCS(=O)(=O)C1 (stereo not given) | 5.78 | 0.146 µM [rising, partial curve, poor fit] | 
12 | CCC(C)[C@H](NC(=O)c1cc2cc(Cl)ccc2n1C)C(=O)N1CCC[C@H]1C(=O)O (stereo not given in full) | 17.8 | 29.1 µM [rising, single point] | 0.326 µM [rising, full curve, poor fit]
13 | COc1cc([N+](=O)[O-])ccc1NC(=S)Nn1cnnc1 | 22.9 | 5.8 µM [rising, partial curve, poor fit] | 
14 | CSCCC(NC(N)=O)C(=O)N(C)CC(=O)Nc1ccc(C)cc1 (stereo not given) | 8.19 |  | 
15 | Cc1cccc(NC(=O)COC(=O)c2ccc(S(=O)(=O)N3CCCCCC3)cc2)c1 | -40.9 | 0.146 µM [falling, full curve, poor fit] | 29.1 µM [falling, single point]
16 | Cc1sc(NC(=O)c2cc(-c3ccc(Cl)cc3)nc3ccccc23)c(C(N)=O)c1C | 17.2 | 16.4 µM [falling, single point] | 
17 | COC(=O)COc1ccc(C(C2C(=O)CC(C)(C)CC2=O)C2C(=O)CC(C)(C)CC2=O)cc1 |  |  | 6.51 µM [falling, single point]
18 | COc1cc(/C=C2/C(=N)N3N=C(CC(=O)N4CCOCC4)SC3=NC2=O)ccc1OCc1ccccc1F | 1.18 |  | 
19 | CC1(C(=O)N2CCN(Cc3ccccc3Cl)CC2)CC1(Cl)Cl (stereo not given) | -20.4 | 0.103 µM [falling, full curve, poor fit] | 

Copied from the list:
Entry for `CCC(C)[C@H](NC(=O)c1cc2cc(Cl)ccc2n1C)C(=O)N1CCC[C@H]1C(=O)O` (stereo not given in full) under AC50 [2]: 0.326 µM [rising, full curve, poor fit]
Entry for `COc1cccc(CNC(=O)c2cc(S(=O)(=O)N3CCCCC3)c[nH]2)c1` under cell number change [%]: 12.3

Further records.

Row | SMILES | cell number change [%] | AC50 [1] | AC50 [2]
20 | CCCCNC(=O)c1cc2c(-c3ccc(Cl)cc3)nn(C)c2s1 |  | 4.11 µM [rising, partial curve] | 
21 | Cc1cnc(NC(=O)CSc2nnc(-c3ccc(Cl)cc3Cl)n2N)s1 | 54.4 |  | 25.9 µM [rising, single point]
22 | OCC1(Cc2ccc(Cl)cc2)CCN(Cc2ccccc2F)CC1 | -12.1 | 0.259 µM [falling, full curve] | 
23 | COc1ccc(C(=O)c2sc3nc(-c4ccc(OC)cc4)ccc3c2N)cc1 | -22.5 | 29.1 µM [falling, single point] | 
24 | CC(C)(C)OC(=O)N1CCN(CCNC(=O)c2ccccc2)CC1 | -13.9 | 0.58 µM [rising, single point] | 
25 | Cc1ccc(S(=O)(=O)NC(=O)NN2CC3CCCC3C2)cc1 (stereo not given) | -18.1 | 14.6 µM [falling, partial curve, poor fit] | 0.00461 µM [falling, full curve, poor fit]
26 | C/C(=N/NC(=O)CNC(=O)c1cccnc1)c1ccc(Cl)c(Cl)c1 | 3.41 | 1.84 µM [rising, partial curve, poor fit] | 
27 | O=C(O)[C@H]1CCCN1C(=O)c1ccccc1N1C(=O)[C@@H]2Cc3c([nH]c4ccccc34)C(c3cccc(Cl)c3)N2C1=O (stereo not given in full) | 8.32 | 29.1 µM [rising, single point] | 
28 | O=C(CCCCCn1c(=O)[nH]c2ccccc2c1=O)N1CCN(Cc2ccc3c(c2)OCO3)CC1 | 9.11 | 2.59 µM [falling, full curve] | 1.16 µM [rising, full curve]
29 | C/C(=N/Nc1nc(-c2ccccc2F)nc2ccccc12)c1ccccc1O | 12.2 | 0.13 µM [rising, full curve, poor fit] | 0.116 µM [rising, full curve, poor fit]
30 | Cc1cc(C)nc(N2CCCC(C(=O)Nc3cccc(Cl)c3)C2)n1 (stereo not given) | 20.6 |  | 
31 | CCn1cc(C(=O)Nc2cccc(NC(C)=O)c2)c2cc(OC)c(OC)cc2c1=O | -37.7 | 29.1 µM [falling, single point] | 29.1 µM [falling, single point]
32 | O=C(CNC(=O)c1ccc(Br)cc1)c1ccc(Br)cc1 | 3.41 | 29.1 µM [rising, single point] | 
33 | Cc1[nH]c2ccccc2c1C(=O)/C=C/c1ccccc1 | -12.4 |  | 
34 | O=C(CSc1n[nH]c(-c2ccccc2)n1)Nc1ccc(Br)cn1 | -47.7 | 14.6 µM [falling, partial curve] | 13 µM [falling, single point]
35 | CC1(C)Cc2c(c(N3CCOCC3)nc3sc4c(NCc5ccco5)nnnc4c23)CS1 | -24.4 | 0.411 µM [rising, single point] | 
36 | CCc1nnc(NC(=O)Nc2ccc(OC)cc2)s1 | -11.7 | 0.116 µM [falling, full curve] | 0.411 µM [falling, full curve, poor fit]
37 | Cc1nc(S/C(C(=O)O)=C2/C(=O)Nc3ccccc32)n[nH]1 | 51.9 |  | 29.1 µM [rising, single point]
38 | S=c1nc2c(n[nH]1)c1ccccc1n2CCc1ccccc1 | -17.8 | 16.4 µM [falling, single point] | 

Row | SMILES | cell number change [%] | AC50 [1] | AC50 [2]
39 | CC(C)(C)c1cc(C(=O)NNc2cccc(Cl)c2)n(Cc2ccccc2)n1 | -38.9 | 25.9 µM [falling, partial curve, poor fit] | 32.6 µM [falling, single point]
40 | Cc1cccc(C)c1NC1=NC2(CCCCC2)N=C(N)N1 | -10.5 |  | 0.13 µM [falling, full curve, poor fit]
41 | CC(=O)NCCCc1nc2ccccc2n1Cc1ccccc1F | 13.3 |  | 
42 | CCOC(=O)c1ccc(Oc2cc(C)nc(SC)n2)cc1 | 45.4 | 29.1 µM [rising, single point] | 29.1 µM [rising, single point]
43 | CCNc1c([N+](=O)[O-])c(=O)n(CC)c2ccccc12 | 23.8 | 29.1 µM [rising, single point] | 
44 | CC(C)(C)C(=O)C1=C(O)C(=O)N(Cc2ccccc2)C1c1ccccc1Cl (stereo not given) | 1.82 |  | 
45 | CS(=O)(=O)N(CC(=O)O)c1ccc2c(c1)OCO2 | -33.8 | 1.3 µM [falling, full curve] | 0.206 µM [falling, full curve]
46 | Cc1cc(C)c(C(=O)C(C)OC(=O)Cn2cnc3c2c(=O)n(C)c(=O)n3C)cc1C (stereo not given) | -99.2 |  | 29.1 µM [falling, partial curve, poor fit]
47 | O=S(=O)(c1cccs1)N1CCN(Cc2nc3ccccc3s2)CC1 |  | 1.46 µM [rising, full curve] | 1.64 µM [rising, partial curve]
48 | CCOc1ccc(OCCC(=O)OCC(=O)NC2CC2)cc1 | 3.86 | 5.17 µM [rising, partial curve, poor fit] | 5.8 µM [rising, single point]
49 | O=C(Nc1ccc(S(=O)(=O)N2CCOCC2)cc1)c1cccc([N+](=O)[O-])c1 | 16.8 | 20.6 µM [falling, single point] | 
50 | O=C(Nc1ccc(N=Nc2ccccc2)cc1)c1ccc(Cl)cc1Cl | -35.2 | 2.59 µM [falling, full curve, poor fit] | 8.2 µM [falling, partial curve, poor fit]
51 | Cc1cccc(NS(=O)(=O)c2cccc(C(=O)N3CCN(C/C=C/c4ccccc4)CC3)c2)c1 | -35.9 |  | 20.6 µM [falling, partial curve, poor fit]
52 | COc1ccccc1CN(C)c1ccc(S(=O)(=O)N2CCN(C)CC2)cn1 | 7.64 | 29.1 µM [rising, single point] | 
53 | CCCC(CCC)C(=O)Nc1cccc(-c2cn3c(n2)SCC3)c1 | 1.19 |  | 
54 | COc1cc(NC(=O)c2ccc(OC)c([N+](=O)[O-])c2)ccc1NC(=O)c1cccs1 | 0.862 |  | 
55 | Cc1nnc(NC(=O)CSc2nnc(CCNC(=O)c3ccccc3F)n2C)s1 | -13.2 | 3.16 µM [rising, partial curve, poor fit] | 
56 | O=C(NCCc1ccc(F)cc1)c1ccc(NS(=O)(=O)c2ccc3[nH]c(=O)[nH]c3c2)cc1 | -5.55 | 1.3 µM [falling, full curve, poor fit] | 0.82 µM [falling, partial curve, poor fit]

In another format: entries from further up.
Row	SMILES	cell number change [%]	AC50 [1]	AC50 [2]
49	O=C(Nc1ccc(S(=O)(=O)N2CCOCC2)cc1)c1cccc([N+](=O)[O-])c1	16.8	20.6 µM [falling, single point]	
51	Cc1cccc(NS(=O)(=O)c2cccc(C(=O)N3CCN(C/C=C/c4ccccc4)CC3)c2)c1	-35.9		20.6 µM [falling, partial curve, poor fit]
